# Percent effect of library compounds

Sequences of proteins named here, by UniProt entry; tags and fusion partners are left off. Residues count along the entry.
UniProt P9WPC5, whole entry: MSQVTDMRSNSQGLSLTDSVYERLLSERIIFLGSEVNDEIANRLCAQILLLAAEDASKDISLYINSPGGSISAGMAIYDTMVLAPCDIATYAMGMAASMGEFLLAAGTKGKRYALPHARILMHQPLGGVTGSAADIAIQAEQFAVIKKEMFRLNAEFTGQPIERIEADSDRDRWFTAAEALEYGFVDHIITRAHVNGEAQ
UniProt P9WPC3, whole entry partner: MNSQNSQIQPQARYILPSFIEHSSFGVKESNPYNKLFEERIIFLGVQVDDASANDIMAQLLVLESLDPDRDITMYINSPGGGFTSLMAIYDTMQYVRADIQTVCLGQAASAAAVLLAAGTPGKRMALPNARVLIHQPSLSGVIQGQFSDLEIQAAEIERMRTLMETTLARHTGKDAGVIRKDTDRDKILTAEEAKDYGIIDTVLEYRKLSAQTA
UniProt Q8IDJ8, 1-583: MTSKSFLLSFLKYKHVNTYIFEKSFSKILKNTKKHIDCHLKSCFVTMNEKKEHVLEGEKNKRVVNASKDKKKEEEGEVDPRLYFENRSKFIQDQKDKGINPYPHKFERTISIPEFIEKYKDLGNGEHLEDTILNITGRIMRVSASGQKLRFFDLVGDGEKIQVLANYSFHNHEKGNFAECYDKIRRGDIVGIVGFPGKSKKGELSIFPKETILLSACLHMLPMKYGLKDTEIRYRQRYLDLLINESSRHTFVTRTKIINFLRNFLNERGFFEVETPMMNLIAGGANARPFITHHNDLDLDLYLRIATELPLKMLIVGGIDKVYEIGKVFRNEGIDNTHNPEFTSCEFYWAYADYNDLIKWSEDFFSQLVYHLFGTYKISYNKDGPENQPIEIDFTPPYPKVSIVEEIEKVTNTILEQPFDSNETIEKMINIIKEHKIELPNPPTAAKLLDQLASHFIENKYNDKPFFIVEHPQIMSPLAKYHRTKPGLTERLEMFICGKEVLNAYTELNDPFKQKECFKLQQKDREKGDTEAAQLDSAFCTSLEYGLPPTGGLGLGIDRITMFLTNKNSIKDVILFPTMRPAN

Leishmania in macrophages: 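Cell assay of Leishmania donovani living inside macrophages; the read-out is not stated. Concentration: 30 µM. The record gives no direction; compounds that gave an IC50 in retests scored well above the rest, so higher reads as stronger inhibition. Size under these conditions: about 69,000 compounds, about 1,000 of them at 50% or above in at least one test.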
ClpP1P2: 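ClpP1P2, Mycobacterium tuberculosis (UniProt P9WPC5 and UniProt P9WPC3). Protease assay of ClpP1P2, read by the AMC dye that it sets free. Concentration: 50 µM. Higher reads as stronger inhibition, judged from the few compounds that gave an IC50. Most other retested compounds had strongly negative values. Size under these conditions: about 69,000 compounds, about 10 of them at 50% or above in at least one test.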
Toxoplasma: 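Assay of Toxoplasma gondii numbers, read through their beta-galactosidase reporter with a colour substrate. Tested at 10 µM. Higher reads as fewer parasites (inferred from which compounds were picked for retests). Of about 67,000 compounds tested this way, about 260 (0.38%) reached 50% or more in at least one test.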
PfKRS1: 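Lysine-tRNA ligase, Plasmodium falciparum 3D7 (UniProt Q8IDJ8). Enzyme assay of the cytosolic lysyl-tRNA synthetase in 384-well plates, read by luminescence. Concentration: 30 µM. Direction is inferred from only a few compounds that gave an IC50; most scored high, so higher reads as stronger inhibition. Of about 69,000 compounds tested this way, about 49 (0.071%) reached 50% or more in at least one test.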

Values are the deposited “Percent Effect”, in %. How 0% and 100% were set is not recorded. Most values in the screen are low, and negative values occur. This is an unselected part of the compounds tested. Two or more numbers in one place are separate tests of the same structure; such repeats can differ widely. A dash means the value is not listed here; it may have been measured.

structure,Leishmania in macrophages,ClpP1P2,Toxoplasma,PfKRS1
CC1(C)CC1(C(=O)N1CC(c2cccnc2)C1)c1ccccc1F (stereo not given),-10.38,4.432,0.2782,5.806
[H][C@@]12C[C@@H](OCc3cccnc3)CN1CCN(C(=O)c1cnc(C)cn1)C2,13.21,-,-11.21,-
Cn1cccc1C(=O)N1CCCC2(CCCN2S(C)(=O)=O)C1 (stereo not given),5.809,6.315,1.036,3.24
NC(=O)NC(=O)CN1CCN(c2nccs2)CC1,-17.28,-19.7,-36.7,0.02812
O=C(NCC(O)c1cccc(F)c1)c1cccnc1O (stereo not given),20.21,-5.288,21.54,-0.5145
CCOC(=O)[C@]12CCCN(Cc3nccs3)C[C@H]1CN(CCOC)C2,-,6.298,-,-2.749
Cc1cccc(CN2Cc3[nH]nc(COCc4nccs4)c3C2)n1.O=C(O)C(F)(F)F,10.58 and -7.475,-,-1.071,-
CCCc1nnc(NC(=O)NC(CCO)c2cccs2)s1 (stereo not given),11.45,0.4506,8.283,7.145
COCCN(CCc1ccccc1)Cc1nc2c(cnn2C)c(=O)[nH]1,33.28,5.787,10.05,6.261
CC(C)c1nncn1CCNC(=O)c1c(O)cc(F)cc1F,-20.02,7.495,-26.27,-0.9381
CC1CCN(c2cc(NC(=O)C3CC3)ncn2)CC1,29.86,-17.98,12.25,5.529
CN1CC(=O)N(c2cccc(F)c2)CC12CCN(Cc1cncn1C)C2 (stereo not given),-,-5.155,-,2.445
CC(c1ccccc1)N(C)C(=O)CN1CCCc2cccc(F)c21 (stereo not given),16.92,-5.093,3.974,1.838
CSCC(CCO)NC(=O)c1cccc(C)c1Cl (stereo not given),-10.96,-20.57,-6.008,2.455
Cc1cc(C)n(C2CN(C(=O)c3cn4ccsc4n3)C2)n1,9.12,-4.84,7.031,3.95
Cc1nc(C)n(CC2CN(CCOc3cccc(F)c3)CCO2)n1 (stereo not given),33.15,-24.93,-2.48,0.5298
Cc1cc(C)c(NC(=O)Nc2cnn(CC(O)CN(C)C)c2)c(C)c1 (stereo not given),-3.622,-3.273,17.91,2.973
O=C(O)Cn1ccc(=O)c2cc(Cl)ccc21,2.36,-5.877,0.4005,-3.203
Fc1ccccc1CN1C[C@@H](OCc2ccncc2)[C@H]2OCCC[C@H]21,-,10.81,-,1.992
CCNc1ncc(C(=O)NCc2csc(C)n2)cn1,31.36,1.358,8.076,3.58
CCC[C@H]1CN(Cc2cc(C#N)n(C)c2C)C[C@@H]1N(C)C,17.42,2.922,1.309,4.496
CC(C)NC(=O)N1CCN(CC2CC2)c2ncccc2C1,-,0.7052,-,1.042
CCCc1n[nH]cc1C(=O)N1CCCC(c2nccn2CC2CC2)C1 (stereo not given),4.45,-4.436,2.833,4.568
FC(F)CNc1cnc(C2CCCN2)cn1 (stereo not given),-,0.794,-,1.302
COc1ccc(F)c(F)c1C(=O)N1C[C@@H](CN(C)CCO)[C@@H](CO)C1,-6.405,2.565,14.41,-3.173
CS(=O)(=O)CCCC(=O)N1CCN(CC2CC2)c2ccccc21,7.505,1.672,4.172,10.03
CC(C)CC(=O)N1CCC2(CC1)OCCO2,-0.992,5.897,16.2,7.002
COc1ccccc1CNC(=O)c1[nH]ncc1Cl,-12.27,-15.07,1.19,3.131
Cc1cnc(C)c(N2CCN(CCCc3[nH]nc(C)c3C)CC2)n1,3.352,-9.001,1.834,2.901
CN(Cc1cccc(-n2cccn2)c1)Cc1c[nH]cn1,3.702,6.362,21.48,-1.819
O=C(NC[C@H]1OC[C@@H](NC2CCC(F)(F)CC2)[C@@H]1O)c1cccs1,6.292,-2.153,-2.915,1.513
CS(=O)(=O)CCNC(=O)Nc1sc2ccccc2c1Cl,-48.56,3.169,-8.587,0.86
COc1ccnc(N2CCN(C(=O)c3csc(C4CC4)n3)CC2)n1,15.31,-19.25,-1.648,6.48
CC(C)n1cnnc1CN(C)Cc1ccc(CN(C)S(C)(=O)=O)o1,11.47,-7.897,-6.133,4.848
CNC(=O)COC1COC2(CCN(c3ccc(C#N)cc3)CC2)C1 (stereo not given),-,-10.68,-,-2.531
O=C(O)C(F)(F)F.[H][C@@]12CN(Cc3ccc4c(c3)OCO4)C[C@@H](C(=O)NC3CC3)[C@]1([H])CCO2,24.29,-,-6.627,-
Cc1cn(CCn2ccnc2-c2sccc2C)nn1,24.1,-6.058,-9.014,4.695
CCc1ccccc1OCCN(C)C(=O)CCN1CCCO1,2.594,7.618,-32.68,-1.148
CN(C)C(=O)CO[C@H]1COCCN(C2CCOCC2)C1,20.23,-3.604,0.2727,5.325
CC1=NN(c2ccc(C(=O)OCCNC(=O)c3ccncc3)cc2)CC1,-9.807,2.29,-3.687,2.399
O=C(CC1Cn2ncnc2NC1=O)Nc1ccccc1 (stereo not given),2.471,-7.325,2.814,2.241
CCCc1ccc(CN2CCN(C(=O)C(C)C)[C@@H]3CS(=O)(=O)C[C@@H]32)o1,-,-1.813,-,25.48
CCOCCCNC(=O)Cc1cccc(F)c1,24,3.47,-27.01,1.637
CC(CN1CCOCC1)NCc1nncn1C1CCCCC1 (stereo not given),-1.161,-14.65,-5.176,1.114
OCCN1CCN(Cc2coc(-c3ccccc3)n2)CC1,24.26,-8.417,8.97,-0.3181
Cc1c(C(=O)NS(=O)(=O)c2ccsc2)cnn1CC(C)C,11.01,-9.214,-2.839,1.327
Cc1cc(N2CCC(c3nccn3Cc3cscn3)CC2)ccn1,-14.56,-0.09457,-1.82,10.05
CCCN(CCC)c1ncc(S(=O)(=O)c2ccc(OC)cc2)c(N)n1,35.17,10.85,13.62,0.04835
Cc1oc(-c2ccsc2)nc1CC(=O)NCC(=O)Nc1cn[nH]c1,19.16,-11.31,7.672,0.2633
Cc1nccn1-c1cc(CNC(=O)C2CCCO2)ccn1 (stereo not given),6.282,-7.114,9.79,-0.7938

The first 5 entries again:

structure,Leishmania in macrophages,ClpP1P2,Toxoplasma,PfKRS1
CC1(C)CC1(C(=O)N1CC(c2cccnc2)C1)c1ccccc1F (stereo not given),-10.38,4.432,0.2782,5.806
[H][C@@]12C[C@@H](OCc3cccnc3)CN1CCN(C(=O)c1cnc(C)cn1)C2,13.21,-,-11.21,-
Cn1cccc1C(=O)N1CCCC2(CCCN2S(C)(=O)=O)C1 (stereo not given),5.809,6.315,1.036,3.24
NC(=O)NC(=O)CN1CCN(c2nccs2)CC1,-17.28,-19.7,-36.7,0.02812
O=C(NCC(O)c1cccc(F)c1)c1cccnc1O (stereo not given),20.21,-5.288,21.54,-0.5145

Data taken from ChEMBL document CHEMBL3988442, “University of Dundee, Small-Polar-MMV Screening Library” (2021).